PubChem BioAssay AID1259308, NCATS, 2017
Test: 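Knock-downs that increase output of a recombinant reporter protein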 (primary screen). Cells: human HEK293 embryonic kidney cells stably expressing firefly luciferase (HEK-CMV-Luc2-Hygro). Reagent: single siRNA against human genes, 0.8 pmol siRNA per well. Timing: 72 h. Measured: 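Luciferase light (ONE-Glo) measured on one replicate plate set and viability (CellTiter-Glo) on the other, scaled to a negative control siRNA, with robust z-scores and luciferase per cell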. Direction: total luciferase, z-score and total luciferase, % of control: higher = more reporter protein produced. Active means: 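An siRNA counts as active if its total luciferase robust z-score exceeds 3; genes with two or more such siRNAs out of three were retested with fresh siRNAs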. Meaning of the calls: active = raised luciferase; inactive = no rise.
In all, the deposit lists about 59,000 reagents; this is a random part of them. About 1,510 of them (2.6%) were called active. 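Calls use total luciferase alone and ignore viability, so some active siRNAs may act by altering cell number.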 Reagents against one gene are numbered here. Not all columns of the deposit are shown. Reagent sequences are not shown.

gene symbol	reagent	total luciferase, z-score	total luciferase, % of control	outcome
GKN1	1	0.418	90.2	inactive
GKN1	2	-0.0607	80.7	inactive
GKN1	3	-0.143	79	inactive
TRPC5	1	-0.267	76.6	inactive
TRPC5	2	-1.79	46.2	inactive
TRPC5	3	2.08	123	inactive
P2RY11	1	0.312	88.1	inactive
P2RY11	2	-0.397	74	inactive
P2RY11	3	1.09	104	inactive
SAPCD1	1	-0.86	64.8	inactive
SAPCD1	2	-0.954	62.9	inactive
SAPCD1	3	1.75	117	inactive
PAK3	1	2.62	134	inactive
PAK3	2	-0.346	75	inactive
PAK3	3	0.775	97.3	inactive
POLE2	1	1.17	105	inactive
POLE2	2	-0.0901	80.1	inactive
POLE2	3	-0.194	78	inactive
SUGCT	1	0.483	91.5	inactive
SUGCT	2	0.755	96.9	inactive
SUGCT	3	0.231	86.5	inactive
FNBP4	1	1.83	118	inactive
FNBP4	2	0.237	86.6	inactive
FNBP4	3	0.0823	83.5	inactive
FAAP20	1	0.0692	83.3	inactive
FAAP20	2	-1.41	53.8	inactive
FAAP20	3	-1.1	60.1	inactive
FYB1	1	-0.282	76.3	inactive
FYB1	2	-1.87	44.7	inactive
FYB1	3	-1.17	58.7	inactive
RBM41	1	-0.907	63.8	inactive
RBM41	2	-0.658	68.8	inactive
RBM41	3	0.338	88.6	inactive

Individual results from the list.
PAK3 #2, total luciferase, % of control → 75
FYB1 #2, total luciferase, % of control = 44.7
Result of FNBP4 #3 in “total luciferase, z-score”: 0.0823
For “outcome”, SUGCT #2 shows inactive
SUGCT #3, outcome → inactive
Entry of P2RY11 #1 under “total luciferase, % of control”: 88.1

More records follow.
gene symbol	reagent	total luciferase, z-score	total luciferase, % of control	outcome
PLEKHA5	1	0.22	86.3	inactive
PLEKHA5	2	-0.447	73	inactive
PLEKHA5	3	0.307	88	inactive
OR10C1	1	1.04	103	inactive
OR10C1	2	1.19	106	inactive
OR10C1	3	1.71	116	inactive
CD244	1	-0.267	76.6	inactive
CD244	2	-0.197	78	inactive
CD244	3	-0.847	65	inactive
TMEM179	1	-0.401	73.9	inactive
TMEM179	2	-0.0135	81.6	inactive
TMEM179	3	0.288	87.6	inactive
TUB	1	0.434	90.5	inactive
TUB	2	0.15	84.9	inactive
TUB	3	0.476	91.3	inactive
GSTZ1	1	1.53	112	inactive
GSTZ1	2	1.27	107	inactive
GSTZ1	3	1.6	114	inactive
GNLY	1	0.42	90.2	inactive
GNLY	2	1.35	109	inactive
GNLY	3	0.85	98.8	inactive
PSG6	1	0.101	83.9	inactive
PSG6	2	-0.919	63.6	inactive
PSG6	3	-1.24	57.3	inactive
